# No constants are given. Whether binding was seen depends on the method and setting. Some results given as binding are weak or reduced against the parent protein; the word gives no strength.
# Assays:
# [1] = target: Pyrococcus furiosus archaeoferritin (product of gene PF1196) (Pyrococcus furiosus) (UniProt Q8U1L0); experiment: dynamic light scattering; as-isolated AFR loaded with 0, 10, 30 and 50 Fe(III) ions per monomer at 55 °C; measured at 25 °C; both purified
# [2] = target: Pyrococcus furiosus archaeoferritin (product of gene PF1196) (Pyrococcus furiosus) (UniProt Q8U1L0); experiment: SEC; AFR loaded aerobically with more than 2 Fe(III) ions per monomer; 48 μM (monomer); Superdex 200, 100 mM MOPS pH 7.0; read at 280 and 315 nm; both purified
binder,measurement,setting,value
"Pyrococcus furiosus archaeoferritin (product of gene PF1196) (protein, UniProt Q8U1L0 1-184) MDIEEEIVKKLENLSIKEILGYAIASEEDAEKFYSELATKLGGLLKEFFTQLSTAERGHKEILLRIYKSKFGDENYPVPEGIPFAETTIKVETVRNLIEAMKIALTNEKTAERVYKYLAEKMPEHREIFKFLATQERSHYESLRAHKEFLEDTVESKPEYIEAPPTYISSQLEIPFGPEYRGAR",binding,[1],binds
same,binding,[2],binds
